Data taken from ChEMBL document CHEMBL3988442, “University of Dundee, Small-Polar-MMV Screening Library” (2021).

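Whole-cell assay for inhibitors of Mycobacterium tuberculosis growth, labelled Cornell in the record; the read-out is not stated. The concentration is filed as 10 mM, unlikely as a test dose, so the dose is not known. The record gives no direction; compounds strong in two other growth screens of this library score well above the rest, so higher reads as stronger inhibition. Size under these conditions: about 53,000 compounds, about 900 of them at 50% or above in at least one test.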

Results are given as percent effect. The controls that fix the scale are not given in the record; negative values are as filed. The compounds are a random part of those screened.

| # | SMILES | Percent Effect |
|---|---|---|
| 1 | `CCC(C)Nc1ccc2c(c1)C1(CCOCC1)C(=O)N2c1ccccc1` (stereo not given) | 37.93 |
| 2 | `O=C(CCc1ccccn1)NCC(O)c1ccc(Cl)cc1Cl` (stereo not given) | 24.23 |
| 3 | `CC(C)c1cc(C(=O)N[C@H]2CN(C3CCOCC3)C[C@@H]2C2CC2)no1` | 2.996 |
| 4 | `COc1ccc(CCCC(=O)NCc2c(C)noc2C)cc1F` | 1.414 |
| 5 | `CCc1ccc(C(COC)NC(=O)c2ccc(C(N)=O)cc2)o1` (stereo not given) | 17.07 |
| 6 | `CSc1ccc2cc(CN(C)CCCN(C)C)c(=O)[nH]c2c1` | -4.829 |
| 7 | `Cc1ccc(S(=O)(=O)n2ccc(C(=O)NCC(F)(F)F)c2)cc1` | 0.1904 |
| 8 | `CN1C(=O)CCc2cc(NC(=O)C3CC(=O)N(CC4CC4)C3)ccc21` (stereo not given) | 20.61 |
| 9 | `Cc1cc(C)n(CC2CCCN2Cc2cccc(C#N)c2)n1` (stereo not given) | 4.739 |
| 10 | `O=C(O)C(F)(F)F.O=C(O)C(F)(F)F.O=C1COC2(CCN(Cc3cccnc3)CC2)CN1c1ccccc1` | 6.339 |
| 11 | `CCC(CC)CN1CCCn2nc(CNC(=O)COC)cc2C1` | 6.618 |
| 12 | `c1cc(CN2CCc3c(CN4CCCC4)n[nH]c3C2)ccn1` | -16.42 |
| 13 | `O=C(O)C(F)(F)F.O=C(O)CCC(=O)N1CCN(CC2CC2)c2ncccc2C1` | -24.28 |
| 14 | `Cc1c(C(=O)NC(C)C)nnn1-c1cccc(C(F)(F)F)c1` | 22.74 |
| 15 | `COc1ncccc1C(=O)N1CCCC(c2cc(C)[nH]n2)C1` (stereo not given) | -2.475 |
| 16 | `CCN(Cc1c(C)nn(CC)c1C)S(=O)(=O)c1cnn(C)c1` | 14.93 |
| 17 | `CCOCc1cnc2n1CCN(C(=O)c1ccoc1C)C2C` (stereo not given) | -24.96 |
| 18 | `Cc1ccc(CN(C(=O)c2cccc(NC(N)=O)c2)C2CC2)o1` | 20.65 |
| 19 | `O=CO.c1nc(CN2CCCC(Cc3ccc(NC4CCCC4)nn3)C2)c[nH]1` (stereo not given) | 3.819 |
| 20 | `CC1(C)CC(NC(=O)c2cnn(-c3ccccc3F)c2N)CC(C)(C)N1` | -20.29 |
| 21 | `Cc1sc(NC(=O)CN(C)CCOc2cccc(F)c2)c(C)c1C` | 45.54 |
| 22 | `CC(C)CCN(C)C(=O)c1cnc2c(cnn2CC(C)C)c1` | 35.22 |
| 23 | `Cc1cc(CC(C)Nc2ncnc3cccc(F)c23)[nH]n1` (stereo not given) | -4.194 |
| 24 | `Cc1ccc(CN2CCc3ncnc(-c4cccnc4)c3CC2)o1.O=C(O)C(F)(F)F.O=C(O)C(F)(F)F` | 21.43 |
| 25 | `COC1CCN(CCNC(=O)NC(C)c2ccc(F)c(F)c2)CC1` (stereo not given) | -56.26 |
| 26 | `COc1ccccc1CC(=O)NS(C)(=O)=O` | 2.24 |
| 27 | `Cc1ccc(-c2nc3c([nH]2)CCNC3C(=O)O)c2cccnc12` (stereo not given) | 8.078 |
| 28 | `Cn1ccnc1-c1ccc(NC[C@H]2CCc3ccccc3O2)nn1` | 35.04 |
| 29 | `Cc1cc(C)n(Cc2ccc(-c3noc(C(=O)NCCO)n3)cc2)n1` | 6.24 |
| 30 | `COCCN1CCc2ncnc(NC3CC3)c2CC1` | 13.2 |
| 31 | `Cc1noc(C)c1NC(=O)NC1CCN(C(=O)OC(C)(C)C)CC1` | 14.03 |
| 32 | `COCCC1COC2(CCN(C(=O)c3cccn3C)CC2)C1` (stereo not given) | 24.02 |
| 33 | `O=C(Nc1ccc2c(c1)C(=O)NC2)c1ccc(S(=O)(=O)C(F)(F)F)cc1` | -24.42 |
| 34 | `Cc1ncsc1CCN1CCC(N(C)Cc2ncc(C(C)C)o2)C1` (stereo not given) | -73.03 |
| 35 | `COc1ccc(CN2CCC3(CCN(c4cccnc4)C3=O)C2)cc1.O=C(O)C(F)(F)F.O=C(O)C(F)(F)F` (stereo not given) | 7.84 |
| 36 | `[H][C@@]12CCC(=O)N(CCC3=CCCCC3)[C@]1([H])CCN(C1CCN(C)CC1)C2` | -1.967 |
| 37 | `[H][C@]12CCC[C@@]1(COCC1CCOCC1)CN(C(=O)c1ccc(C)o1)C2` | 6.767 |
| 38 | `CCOc1ccc(-n2ccc3nc(N4CCCC4)ncc3c2=O)cc1` | -26.58 |
| 39 | `CS(=O)(=O)CC1CCCN(c2ncnc3c2Cc2ccccc2OC3)C1` (stereo not given) | 5.09 |
| 40 | `CCc1cn[nH]c1C1CCCN(C(=O)c2noc(C)c2COC)C1` (stereo not given) | -70.33 |
| 41 | `CC(C)c1cc(NC(=O)Cn2ccc(=O)c3ccccc32)[nH]n1` | -4.869 |
| 42 | `CC(=O)Nc1ccc(-c2ccccc2CCN)cc1` | 19.67 |
| 43 | `CCS(=O)(=O)N1CCC2(CC(=O)N(c3cncnc3)C2)C1` (stereo not given) | 14.66 |
| 44 | `CS(=O)(=O)CCCSc1n[nH]c(-c2ccc3c(c2)CCC3)n1` | 14.89 |
| 45 | `CC(C)N(C)S(=O)(=O)N1CCCC1C(=O)N1CCSCC1` (stereo not given) | 20.58 |
| 46 | `COCc1nc(C(=O)OCC2CCN(c3ccccc3)C2)cs1` (stereo not given) | 17.1 |
| 47 | `COC(=O)c1ccc2ccn(CC3CCCCO3)c(=O)c2c1` (stereo not given) | 5.966 |
| 48 | `Cc1nc(C)c(C(=O)N2Cc3ccccc3OCC2Cn2ccnc2)s1` (stereo not given) | 4.708 |
| 49 | `CNC(=O)CCN1CCCCCC1c1ccc(C)o1` (stereo not given) | -0.03815 |
| 50 | `Cn1cc(CNCC2Cn3nnc(-c4ccccc4)c3CO2)cn1` (stereo not given) | -28.51 |
| 51 | `[H][C@@]12CCN(S(=O)(=O)c3cccs3)[C@]1([H])CCC(=O)N2CCOC` | -26.53 |
| 52 | `O=C(O)C(F)(F)F.[H][C@@]12COC[C@@H](CC(=O)N3CCCCO3)[C@]1([H])CN(CC1CC1)C2` | -9.871 |
| 53 | `Cc1cc(CN2CCN(CC(O)c3ccccc3)CC2)no1` (stereo not given) | 30.09 |

Some entries from above, unchanged:

SMILES,Percent Effect
Cc1cc(CN2CCN(CC(O)c3ccccc3)CC2)no1 (stereo not given),30.09
Cc1noc(C)c1NC(=O)NC1CCN(C(=O)OC(C)(C)C)CC1,14.03
O=C(O)C(F)(F)F.[H][C@@]12COC[C@@H](CC(=O)N3CCCCO3)[C@]1([H])CN(CC1CC1)C2,-9.871
CCN(Cc1c(C)nn(CC)c1C)S(=O)(=O)c1cnn(C)c1,14.93